In the supplement of paper PMC12823440, “Inhibitors supercharge kinase turnover through native proteolytic circuits” (Nature, 2025):
Structures can show the parent of a compound that is named as a salt. The list shows a part of the results. The calls rarely recur for the same compound in another form.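 Kinases were expressed as nanoluciferase fusions in K562 cells and luminescence was read every 4 h between 2 and 18 h as percent of control, DMSO set to 100% and a positive control to 0%. A time point counts as decreased when the signal drops significantly (2 sigma). The hit call is the authors' own, does not follow from the count of time points alone, and its rule is not shown.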

The chains behind the UniProt entries cited, without tags or fusion partners. Where a name states a change or a piece, a line headed by the entry shows the natural chain unless it says otherwise.
UniProt P48729: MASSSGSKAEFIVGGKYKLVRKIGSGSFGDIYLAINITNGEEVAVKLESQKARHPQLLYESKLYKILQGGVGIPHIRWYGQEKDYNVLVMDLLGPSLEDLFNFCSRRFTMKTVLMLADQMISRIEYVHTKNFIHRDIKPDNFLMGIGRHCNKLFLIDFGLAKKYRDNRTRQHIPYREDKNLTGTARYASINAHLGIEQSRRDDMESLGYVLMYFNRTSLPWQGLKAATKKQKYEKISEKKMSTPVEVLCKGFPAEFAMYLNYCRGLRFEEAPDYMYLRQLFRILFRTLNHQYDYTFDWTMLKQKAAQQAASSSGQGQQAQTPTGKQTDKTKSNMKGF

These compounds were tested against CSNK1A1 (UniProt P48729) (assay: kinase-Nluc reporter destabilization hit call (1 = scored as downregulated) (binary); higher = compound decreases kinase abundance). Conditions: 10 µM; K562; 2-18 h.

kinase-Nluc reporter destabilization hit call, inactive:
CCS(=O)(=O)N1CCN(c2ccc(Nc3ncc(C(N)=O)c(NC4CC4)n3)cc2)CC1 [Cerdulatinib (hydrochloride)] 0
C[C@@H](N)c1ccc(C(=O)Nc2ccnc3[nH]ccc23)cc1 0
COc1ncc(F)cc1CNc1ccc(Cc2c[nH]c3ncc(C)cc23)c(F)n1 0
CCS(=O)(=O)N1CC(CC#N)(n2cc(-c3ncnc4[nH]ccc34)cn2)C1 [Baricitinib (phosphate)] 0
COC(=O)[C@H](CC(C)C)NC(=O)c1ccc(NC[C@@H](N)CS)cc1-c1cccc2ccccc12 [GGTI298 (Trifluoroacetate)] 0
COCCOc1cc(F)c2c(Nc3ccc(NC(=O)Cn4cc(C(C)C)nn4)cc3)ncnc2c1 [AZD3229 Tosylate] 0
CC(C)(C)n1nc(-c2cccc3ccccc23)c2c(N)ncnc21 [1-Naphthyl PP1] 0
N#CCNC(=O)c1ccc(-c2ccnc(Nc3ccc(N4CCOCC4)cc3)n2)cc1 [Momelotinib sulfate] 0
Cn1ncc(Cl)c1-c1cc(C(=O)N[C@H](CN)Cc2cccc(F)c2)sc1Cl [Afuresertib] 0
CNC(=O)c1ccc(Nc2ncc(C(F)(F)F)c(NCc3nccnc3N(C)S(C)(=O)=O)n2)cc1 [Defactinib] 0
O=C(O)c1ccc2c(c1)nc(Nc1cccc(Cl)c1)c1ccncc12 [Silmitasertib] 0
O=C(Nc1cnn2ccc(N3CCC[C@@H]3c3cc(F)ccc3F)nc12)N1CC[C@H](O)C1 [Larotrectinib] 0

Arranged by SMILES length (low to high): some entries from above.
kinase-Nluc reporter destabilization hit call, inactive:
CCS(=O)(=O)N1CC(CC#N)(n2cc(-c3ncnc4[nH]ccc34)cn2)C1 [Baricitinib (phosphate)] 0
CCS(=O)(=O)N1CCN(c2ccc(Nc3ncc(C(N)=O)c(NC4CC4)n3)cc2)CC1 [Cerdulatinib (hydrochloride)] 0
O=C(Nc1cnn2ccc(N3CCC[C@@H]3c3cc(F)ccc3F)nc12)N1CC[C@H](O)C1 [Larotrectinib] 0
